In PubChem BioAssay AID493014 (National Center for Advancing Translational Sciences (NCATS), 2011):
The campaign covered roughly 340,000 compounds. About 170 (0.05%) were called active. The shares of active, inactive and inconclusive entries below differ from those in the screen. The call rests on the fitted dose curve; in most records, active means well fitted inhibition curve with a large enough effect in the signal ratio, with a control signal flat (not every such curve was filed as active); inconclusive means small, poorly fitted or top-dose-only effect, or effect the other way, or a change in a side signal; inactive means flat fitted curve, though single readings scatter; the % refers to the signal ratio. Where the call is inconclusive, the potency comes from a doubtful curve fit.

Assay: qHTS Assay to Find Inhibitors of Chronic Active B-Cell Receptor Signaling;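 on activity change, negative = inhibition: plate controls were basal doxycycline-induced cells for no effect and cells given 10 µM MG132 for full effect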
Settings: ABC-DLBCL IkBa-CBG/CBR reporter, luminescence ratio (green luciferase fused to IkBa over red control in TMD8 lymphoma cells), 4 h; activity change, negative = inhibition: at 46.1 µM (top of the series)
Summary of the method: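 Compounds up to 46 uM were incubated four hours with TMD8 cells whose green CBG68 luciferase is fused to IkappaBalpha; red CBR luminescence normalised the signal, and concentration-effect curves were fitted to fusion, red and ratio data.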
Potency means the concentration at half of the fitted maximal effect.

SMILES | activity change, negative = inhibition | Potency
CCC(=O)Nc1cccc(C2=NN(c3ccccc3)C(c3ccc(OC)cc3)C2)c1 (stereo not given) | inactive: 0.352% | 
CCc1c(C)nc2nc(SCc3ccccc3)[nH]n2c1=O |  | inconclusive: 31.6 µM [rising, single point]
CCN(CC)S(=O)(=O)N1CCC(C(=O)NCCC2=CCCCC2)CC1 |  | inconclusive: 1.12 µM [falling, partial curve, poor fit]
CC(=O)c1cc(-c2ccccc2)n(CCC(=O)Nc2ccc(C(C)C)cc2)c1C |  | inconclusive: 11.2 µM [falling, single point]
O=C(Cc1csc(Nc2nc(=S)[nH]c3ccccc23)n1)N1CCN(c2cccc(Cl)c2)CC1 | inconclusive: 11.3% | 
CC1=N/C(=C\c2ccc([N+](=O)[O-])cc2)C(=O)N1c1ccc(Br)c(C)c1 | inconclusive: 13.1% | 
C=CCN1C(=O)S/C(=C\c2ccc(N3CCOCC3)cc2C)C1=O | inconclusive: 17.4% | 
CCCCC(=O)NC(c1ccco1)c1c(O)ccc2ccccc12 (stereo not given) | inconclusive: -0.702% | 
CCCCCCCC(=O)N/N=C/c1cccnc1 | inconclusive: 4.02% | 
Cc1ccc(C(=O)Nc2ccc(Oc3cccc(C(F)(F)F)c3)nc2)cc1 | inactive: 8.18% | 
O=C(COC(=O)CCOc1ccccc1)Nc1cc(S(=O)(=O)N2CCCCC2)ccc1Cl | inconclusive: -16.7% | 
O=C(CSc1cccc2cccnc12)N/N=C/c1cccnc1 |  | inconclusive: 35.5 µM [falling, single point]
Cc1cc(C)c(OCC(=O)Nc2nc(-c3ccccn3)cs2)c(C)c1 | inactive: -5.32% | 
Cc1ccc(C2N(C)c3ccccc3-c3nc4ccccc4n32)o1 (stereo not given) | inactive: 1.56% | 
Cc1oc(C(=O)O)cc1COc1ccc2c3c(c(=O)oc2c1)CCC3 | inconclusive: -11.5% | 
COc1ccc(NC(=O)c2cccc(S(=O)(=O)Nc3ccc(Br)cc3)c2)cn1 | inconclusive: 0.833% | 
CC(=O)c1cc2c(cc1N/C(=N/S(=O)(=O)c1ccccc1)c1ccc(Cl)cc1)OCO2 | inconclusive: 19.5% | 
O=C(Nc1cccc(-c2nc3ncccc3o2)c1)c1cc2ccccc2o1 |  | inconclusive: 29.1 µM [falling, single point]
O=c1cc(-c2ccccc2)nc2nc(-c3ccco3)[nH]n12 |  | inconclusive: 5.17 µM [falling, single point]
Cc1ccccc1OCCC(=O)OCC(=O)N1c2ccccc2NC(=O)C1(C)C | inconclusive: 1.29% | 
C=CCn1c(COc2ccc(CC)cc2)nnc1SC/C(O)=C(\C#N)c1nc2ccccc2[nH]1 | inactive: 8.13% | 
O=C(NCCc1c[nH]c2ccccc12)OCCCCOC(=O)NCCc1c[nH]c2ccccc12 | inconclusive: 13.6% | 
CCOc1ccccc1NC(=O)COC(=O)C1CC(=O)N(c2c(C)cccc2C)C1 (stereo not given) |  | inconclusive: 12.6 µM [falling, single point]
CCOC(=O)c1ccc(S(=O)(=O)N2CCN(CC(=O)NC(=O)NC3CCCCC3)CC2)cc1 | inconclusive: -1.38% | 
Cc1cc(C(=O)OCC(=O)c2cccc([N+](=O)[O-])c2)c2ccccc2n1 |  | inconclusive: 23.1 µM [falling, partial curve, poor fit]
COCCn1c(-c2ccc(OC)cc2)cnc1SCC(=O)Nc1cccc2ccccc12 |  | inconclusive: 20.6 µM [falling, single point]
COc1ccc(C(=O)NNC(=O)CCC(=O)NNC(=O)c2ccc(OC)cc2)cc1 |  | inconclusive: 35.5 µM [falling, partial curve, poor fit]

SMILES | activity change, negative = inhibition | Potency
O=C(N/N=C/c1ccncc1)c1cccc(NC(=O)c2ccccc2Cl)c1 |  | inconclusive: 5.8 µM [falling, partial curve, poor fit]
COc1ccc(CNC(=O)Nc2ccc(OC)cc2)cc1 | inactive: -18.2% | 
CCOC(=O)c1c(CN2CCCCC2)oc2ccc(OC)cc12 | inconclusive: 4.91% | 
COc1cc(C(=O)N2CCN(Cc3ccccc3C(F)(F)F)CC2)cc(OC)c1OC | inconclusive: 3.74% | 
O=C(CSC1=NS(=O)(=O)c2cc(F)ccc2N1)Nc1cccc(F)c1 |  | inconclusive: 14.6 µM [falling, partial curve]
Cc1cc(Cl)ccc1NC(=O)CN1CCCC1 | inactive: 4.34% | 
CC(Oc1ccc(F)cc1)C(=O)N(Cc1ccccc1)c1c(N)n(Cc2ccccc2)c(=O)[nH]c1=O (stereo not given) | inconclusive: -2.7% | 
Cc1cc(C(=O)CN2C(=O)c3ccccc3C2=O)c(C)n1C1CC1 | inconclusive: -28.8% | 
COc1cc(CCC(=O)Nc2ccc(S(=O)(=O)N3CCOCC3)cc2)cc(OC)c1OC | inconclusive: -0.556% | 
O=C(CCCN1C(=O)/C(=C/c2ccccc2)SC1=S)Nc1ccc(C(=O)O)c(O)c1 |  | inconclusive: 25.1 µM [falling, partial curve]
CN(C)c1nc(Oc2ccc(N)cc2)nc(N(C)C)n1 | inconclusive: 4.88% | 
O=C(c1ccc(S(=O)(=O)N2CCCCCC2)cc1)N1CCN(Cc2ccccc2)CC1 | inconclusive: 0.804% | 
O=C(CN1C(=O)S/C(=C\C=C\c2ccccc2)C1=O)Nc1ccc(O)cc1 |  | inconclusive: 18.4 µM [cytotoxic, single point]
Cc1ccccc1-c1noc(-c2ccccc2C(=O)O)n1 |  | inconclusive: 17.8 µM [falling, partial curve]
O=C(O/N=C1/CCSc2ccccc21)c1ccc(F)cc1 | inconclusive: -5.88% | 
O=C(CSc1nnc(SCc2cccc3ccccc23)s1)Nc1ccc(C(=O)O)cc1 |  | inconclusive: 31.6 µM [falling, single point]
Cc1ccc(NC2CCCN(C(=O)c3cn(C)c4ccccc34)C2)cc1C (stereo not given) | inconclusive: -5.26% | 
CCCCSc1nnc2c(n1)OC(C(=O)c1ccccc1)Nc1ccccc1-2 (stereo not given) | inconclusive: 0.132% | 
COc1cc(C(=O)Nc2nc(C)c(Cc3ccc4c(c3)OCO4)s2)cc(OC)c1OC |  | inconclusive: 14.6 µM [falling, partial curve, poor fit]
CC(C)c1nc(-c2ccc([N+](=O)[O-])cc2)cs1 | inconclusive: 7.64% | 
Cn1c(SCC(=O)NCC2CCCO2)nnc1-c1ccco1 (stereo not given) | inconclusive: 2.53% | 
Cc1ccccc1CN1C(=O)C(O)(CC(=O)c2ccccc2)c2cc(Cl)ccc21 (stereo not given) | inconclusive: -2.06% | 
CCOc1ccc(N2C(=O)C(c3ccccc3)=C(c3nc4ccccc4s3)C2NC(C)=O)cc1 (stereo not given) |  | inconclusive: 4.11 µM [falling, partial curve]
Cc1ccccc1OCc1n(CC(=O)OC2CC(C)CCC2C(C)C)c2ccccc2[n+]1C (stereo not given) |  | inconclusive: 35.5 µM [rising, single point]
COCCNC(=O)Cn1cnc2ccc(S(=O)(=O)N3CCC(C)CC3)cc2c1=O | inactive: 0.169% | 
COc1cc2nc(Nc3ccc(C)c(Cl)c3)nc(N)c2cc1OC | inconclusive: -4.16% | 
NC(=O)CSc1ncnc2c1oc1ccccc12 | inconclusive: 1.29% | 

3 consecutive compounds already listed:
SMILES | activity change, negative = inhibition | Potency
O=C(CSc1nnc(SCc2cccc3ccccc23)s1)Nc1ccc(C(=O)O)cc1 |  | inconclusive: 31.6 µM [falling, single point]
Cc1ccc(NC2CCCN(C(=O)c3cn(C)c4ccccc34)C2)cc1C (stereo not given) | inconclusive: -5.26% | 
CCCCSc1nnc2c(n1)OC(C(=O)c1ccccc1)Nc1ccccc1-2 (stereo not given) | inconclusive: 0.132% | 

Next part:

SMILES | activity change, negative = inhibition | Potency
O=C(c1coc(=O)c(Br)c1)N1CCCc2ccccc21 | inactive: 2.27% | 
COc1cc(C(=O)NCC(=O)OCC(=O)c2ccc[nH]2)cc(OC)c1OC | inconclusive: 3.3% | 
O=C(Nc1ccc2ccccc2c1)c1ccc(Cl)cc1Cl | inactive: 11.2% | 
COc1ccc(-n2nc3c(c2NC(=O)c2ccc(S(=O)(=O)N4CCOCC4)cc2)CS(=O)C3)cc1 (stereo not given) | inconclusive: -24.5% | 
CC(=O)Nc1ccc(-c2csc(Nc3ccccn3)n2)cc1 |  | inconclusive: 14.1 µM [falling, partial curve]
Cc1cccc(NNC(N)=S)c1 | inactive: -2.59% | 
CCCN(CCC)CC(C)(C)NS(=O)(=O)c1ccc(Cl)cc1 | inactive: 7.23% | 
Cc1nc(NC(=O)c2ccco2)sc1C(=O)Nc1ccc(Br)cc1 | inconclusive: 12.7% | 
Cc1ccc(-c2nc3c(c(=O)[nH]c(=O)n3Cc3ccccc3)n2Cc2ccccc2)o1 | inconclusive: -18.2% | 
O=C1NC(=O)/C(=C\c2ccc(Cl)nc2)S1 | inactive: 8.69% | 
O=C(CCCN1C(=O)c2ccccc2C1=O)N1CCC(c2ccccc2)C1 (stereo not given) | inconclusive: 10.9% | 
CCOc1cc(C#N)c(NC(=O)c2cccnc2)cc1OCC |  | inconclusive: 12.6 µM [falling, partial curve, poor fit]
O=C(O)CSc1nnc(SCc2cccc3ccccc23)s1 |  | inconclusive: 2.59 µM [falling, partial curve, poor fit]
CCn1c(SCC(=O)Nc2nc3c(s2)CCCC3)nnc1-c1ccccc1 | inconclusive: -7.53% | 
COc1ccc(C(=O)OCC(=O)c2c[nH]c3ccccc23)c(OC)c1 | inactive: -13.9% | 
CCOc1ccc(CCNC(=O)c2ccc(CS(=O)Cc3ccc(Cl)cc3)o2)cc1OCC (stereo not given) | inactive: -0.719% | 
COc1cc(Cl)c(C)cc1NC(=O)CN(C)Cc1cccc(OC)c1OC | inconclusive: 3.19% | 
Cc1cccc(-n2c(Cc3ccccc3)n[nH]c2=S)c1 | inactive: 11.8% | 
Cc1cc(C)n2nc(-c3ccco3)nc2n1 | inactive: 8.58% | 
CC(C)(O)c1cc(=O)sc2nc3ccccc3n12 | inconclusive: -11.2% | 
COCCCNC(=O)c1c(N)n(-c2ccc3c(c2)OCO3)c2nc3ccccc3nc12 | inconclusive: 10.9% | 
CC1CCN(c2nc3ccc(C(=O)O)cc3s2)CC1 | inconclusive: 231% | 
CC(C)(C)c1nc(SCC(=O)c2ccccc2)c2ccccc2n1 |  | inconclusive: 2.51 µM [falling, full curve, poor fit]
Cn1c(SCc2ccc(C#N)cc2)nnc1-c1ccncc1 | inconclusive: 12.3% | 
Cc1nc2cc(Cl)ccc2c(=O)n1Cc1ccncc1 | inactive: -2.51% | 
O=C(CN1CCCCCC1)Nc1ccc(F)c(F)c1F |  | inconclusive: 20.6 µM [falling, partial curve]
